The list shows a part of the results. Many values rest on one well or one pass, so single values are uncertain.
The molecules below were run on Saccharomyces cerevisiae BY4743 (assay: growth (OD600) relative to untreated control; higher = less growth inhibition). Settings: compound concentration: 133 uM; 20 h.
Protocol: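 NMCCC compounds (133 uM, no IPBC) tested alone against Saccharomyces cerevisiae BY4743 in YPD, 96-well plates, starting OD600 ~0.1. Growth was read as OD600 at 20 h and expressed as % of the untreated control. Single pass.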
`CC(C)c1cc(C(=O)N2CCN(c3ccccc3F)CC2)cs1` was tested, and the growth was 97.7%.
`CCOC(=O)Cn1c(-c2cnn(CC)c2)nc2ccccc21` was tested, and the growth was 104%.
In the case of `O=C(COC(=O)c1[nH]nc2ccccc12)NC(=O)NC1CCCCC1`, the growth is reported as 90.5%.
With `COc1ccc(-n2cc(C#N)c3cccnc32)cc1` the growth was 78.7%.
`O=c1ccc(-c2ccccc2F)nn1C/C=C/c1ccccc1` was tested, and the growth was 108%.
`CCOC(=O)c1cc(S(=O)(=O)NC2CCN(Cc3ccccc3)CC2)cn1C` showed a growth of 75.7%.
With `CC(Sc1ccc2c(c1)OCCCO2)C(=O)Nc1sccc1C(N)=O` (centres undefined) the growth was 116%.
Molecule `Cc1cc(Br)cc(C)c1OCC(=O)Nc1sc2c(c1C(N)=O)CCCC2` has a growth of 96%.
Work on `CC(C)C(CNS(=O)(=O)c1ccc2c(c1)CCCC2)N1CCOCC1` (centres undefined) yielded a growth of 113%.
`COc1ccc(NC(=O)CCc2cccs2)cc1S(=O)(=O)N1CCOCC1` gave a growth of 107%.
`COC(=O)c1ccc(C(=O)N2CCN(C(=O)c3ccc(OC)cc3)CC2)nc1` was tested, and the growth was 110%.
`CCCNC(=O)c1nn(CC)cc1NC=O` was tested, and the growth was 88.2%.
With `COC(=O)CNC(=O)CSc1nc(C2CC2)n(-c2ccccc2)n1` the growth was 84.1%.
`Cc1nc(-c2ccccc2)sc1C(=O)OC(C)C(=O)N1CCNC1=O` (centres undefined) was tested, and the growth was 101%.
Molecule `CCCn1c(=O)n(-c2ccccc2)c(=O)c2ccccc21` has a growth of 106%.
`CC(C)CCn1c(SC(C)C)nc2c1c(=O)[nH]c(=O)n2C` was tested, and the growth was 97.1%.
Molecule `CN(CCNC(=O)N\C1=C\N(C)C(=O)C2=CC=CC=C12)C3CCCCC3` has a growth of 104%.
Work on `COC(=O)c1cc(NC(=O)Cc2ccc(NC(=O)OC(C)(C)C)cc2)ccc1Cl` yielded a growth of 119%.
`Cc1cc(C(=O)CSc2ncccn2)c(C)n1-c1cccc(F)c1` was tested, and the growth was 91.3%.
`CCN1CCN(S(=O)(=O)c2ccc3c(c2)NC(=O)C(C)CS3)CC1` (centres undefined) gave a growth of 90.7%.
For `COC(CN(C)C(=O)c1cc2c(C)nc3ccccc3c2o1)OC`, the growth was 91.3%.
For `CC(C)C(=O)NC1=CC=C(C=C1)C(=O)C(C)OC(=O)CN2\C=N/C3=C(C=CS3)C2=O` (centres undefined), the growth was 102%.
`COc1ccc(-c2cnn3c(C(F)(F)F)cc(C(F)(F)F)nc23)cc1OC` was tested, and the growth was 102%.
`COc1cccc(CNC(=O)N2CCCn3nc(C)cc32)c1` was tested, and the growth was 104%.
`CCC(Sc1nc(O)c2c(n1)CCC2)C(=O)NC1CCCCC1` (centres undefined) was tested, and the growth was 93%.
Molecule `FC(F)(F)C/1=C/N(CC/2=C/C(=O)N/3\C=C(Br)/C=C\C3=N2)C(=O)/C=C1` has a growth of 103%.
`CC/1=C/C(=O)N(/C=N1)C(NC(=O)C2=CC=CC=C2)C(=O)C3=CC=CC=C3` (centres undefined) gave a growth of 93.3%.
Work on `CCN1\N=C(\C(=O)OC2CCOC2=O)C3=CC=CC=C3C1=O` (centres undefined) yielded a growth of 101%.
Work on `COc1ccc(Cl)cc1C(=O)NCCc1ccc(-n2cccn2)cc1` yielded a growth of 104%.
`CC(C)CCNC(=O)c1cc2n(n1)CC(C)(C(=O)NCc1ccc(F)cc1)N(C)C2=O` (centres undefined) showed a growth of 90.2%.
In the case of `CC1CN(S(=O)(=O)c2cccc(C(=O)OCCc3ccccc3)c2)CC(C)O1` (centres undefined), the growth is reported as 81%.
`COc1ccc(Br)c(C(=O)Nc2ccc(S(=O)(=O)C(F)F)cc2)c1` gave a growth of 95.7%.
In the case of `CC(=O)Nc1cc(NC(C)=O)cc(C(=O)OC(C)C(=O)N2c3ccccc3NC(=O)C2(C)C)c1` (centres undefined), the growth is reported as 99%.
In the case of `O=C([O-])c1cc(O)nc2ccc(S(=O)(=O)Nc3ccc(F)cc3)cc12`, the growth is reported as 96%.
Work on `O=C(CCC(=O)N1CCOc2ccc(Cl)cc21)NCC1CCCO1` (centres undefined) yielded a growth of 89.8%.
Molecule `Cc1sc(NC(=O)C2CC2)c(C(=O)OC(C)C(=O)N2CCCC2)c1C` (centres undefined) has a growth of 101%.
For `CC(C(=O)O)n1c(SCC(=O)N(C)CCOc2ccc(Cl)cc2)nnc1-c1cccs1` (centres undefined), the growth was 112%.
Work on `Cc1[nH]c2ccc(C(=O)OCC(=O)c3cc(C)n(C)c3C)cc2c1C` yielded a growth of 94.2%.
With `CCn1nc(C)c(CNS(=O)(=O)c2ccc(C)cc2C)c1C` the growth was 99.3%.

— the supplement of paper PMC8007513
